The other results are listed elsewhere or left out.
The sequences below were run against OsWRKY34 (Oryza sativa, UniProt Q0JBA9 1-250) (assay: protein-binding microarray (RPBM); PBS, 2% BSA, 51.3 ng/ul salmon testes DNA, 50 uM zinc acetate, 200 nM TF, 25 C, 1 h; high values mean tight binding). Settings: protein: recombinant; tags: N-terminal polyhistidine and DsRed monomer fusion (pET32a); label: CyDye5-dUTP incorporated in the synthesized complementary strand; 3' TTTTT single-stranded linker to array surface; dsDNA, one strand shown.
Summary of the method: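 The binding signal for each feature is its fluorescence intensity in arbitrary units. An Axon 4000B scanner was used to read a custom Agilent array that had been made double-stranded with Cy5-dUTP primer extension, blocked with 2% BSA, incubated at 25 °C for 1 h with 200 nM protein in PBS, 2% BSA, salmon testes DNA and 50 µM zinc acetate, and washed. The protein was an N-terminal polyhistidine–DsRed transcription factor fusion from E. coli BL21-CodonPlus, purified on Ni–NTA.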

The chains behind the UniProt entries cited, without tags or fusion partners.
UniProt Q0JBA9, entry or part of it: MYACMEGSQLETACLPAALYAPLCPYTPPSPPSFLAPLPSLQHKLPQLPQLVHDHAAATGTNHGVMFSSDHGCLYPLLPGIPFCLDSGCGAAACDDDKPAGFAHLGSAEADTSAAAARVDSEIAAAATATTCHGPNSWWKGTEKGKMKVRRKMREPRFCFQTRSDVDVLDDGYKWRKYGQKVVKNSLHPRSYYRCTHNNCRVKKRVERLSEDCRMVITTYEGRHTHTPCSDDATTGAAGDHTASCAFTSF

Sequence	binding signal
CTATGGTAGGTAGGGTTTTCGTGTTGCGAGGTTACAGGGGCGGAGTCACCTAGTGCAG	12200 fluorescence intensity (a.u.)
ATATATATATATATATATATACATACATATACACACACACCGGAGTCACCTAGTGCAG	8050 fluorescence intensity (a.u.)
GAACCTTATCCGTTTCTGCAACGCTACGCTGTGTTTCTCTCGGAGTCACCTAGTGCAG	10500 fluorescence intensity (a.u.)
GAGCTATACTATTATTATCTTACTCTAATAGCTATCTACTCGGAGTCACCTAGTGCAG	8550 fluorescence intensity (a.u.)
TATCCAAAAAAACTCTACTACTTGCCCTCGCTTGCACGTCCGGAGTCACCTAGTGCAG	8110 fluorescence intensity (a.u.)
TCAAAATGTTTAACGCCGTTGACTTTTTAGCACATTTTTGCGGAGTCACCTAGTGCAG	33000 fluorescence intensity (a.u.)
AAATTACAGGCTCATCGTTTCGTCTAATTATAAATCATAACGGAGTCACCTAGTGCAG	8360 fluorescence intensity (a.u.)
TATATGTCACCTCTACTGGATTTGTGTAGTGTATCATATTCGGAGTCACCTAGTGCAG	9060 fluorescence intensity (a.u.)
GATTCAATCAGACGTTCAGTTTTTCTTCTTTCTTTTTTTTCGGAGTCACCTAGTGCAG	8170 fluorescence intensity (a.u.)
TTTTACTCTCCTTCTCATCCAAGCCACCACCCGTGAAAATCGGAGTCACCTAGTGCAG	10100 fluorescence intensity (a.u.)
ACCGTTGACTTTTTAGCACATGATTGATCGTTCGTTTTATCGGAGTCACCTAGTGCAG	33800 fluorescence intensity (a.u.)
CGGCGGCTACGACCACCGTCTTCCTCATCTCCGGCGTCGCCGGAGTCACCTAGTGCAG	10300 fluorescence intensity (a.u.)
CCTTCATTTACTTTTGCTTATACTTGGTTTGTCTTTCTAACGGAGTCACCTAGTGCAG	8240 fluorescence intensity (a.u.)
TCTCCTCGGCATTTCCGATTCTTGACTGGCTTGTTCTCTCCGGAGTCACCTAGTGCAG	8760 fluorescence intensity (a.u.)
AATACCCAGAATCCACCACATCTCTTTAATAGTACCTACACGGAGTCACCTAGTGCAG	8020 fluorescence intensity (a.u.)
GATCGGTTGTTCTCTTCTCGCCCATATCTTGCATCTCACACGGAGTCACCTAGTGCAG	11900 fluorescence intensity (a.u.)
CCGTCCTCCTCCTGCGCCGCCGTCCTCCTCCTGCTGACCCCGGAGTCACCTAGTGCAG	8090 fluorescence intensity (a.u.)
CAACCTCGCATCCCGACGTTCGTCCACGCAACTGCATGCACGGAGTCACCTAGTGCAG	8030 fluorescence intensity (a.u.)
GCTGCTGCATCCAGTCAATAAGTCGTCTGTCCATTATCCTCGGAGTCACCTAGTGCAG	10900 fluorescence intensity (a.u.)
AATTGTCTCTAAAATTAATGTCTCTTTGTGTCATCTTGTTCGGAGTCACCTAGTGCAG	9820 fluorescence intensity (a.u.)
GTTTAGTGTTGGTCATCCGTTTAATTATCCTCCAACTCACCGGAGTCACCTAGTGCAG	10100 fluorescence intensity (a.u.)
CGAGGGAGATGGGACGGCGATGGTGACAGGGATGGAGGGACGGAGTCACCTAGTGCAG	8230 fluorescence intensity (a.u.)
TTGACATCCTACGTTTGTGTTCCTCGTCACTCCACTATCGCGGAGTCACCTAGTGCAG	8040 fluorescence intensity (a.u.)
AATTCTCTTCTTTCTGACTGTCATGAGACCTATTTTGTATCGGAGTCACCTAGTGCAG	9560 fluorescence intensity (a.u.)
TCCATTGACACCGGCACACGCACACGCACACCCGCACCGCCGGAGTCACCTAGTGCAG	8960 fluorescence intensity (a.u.)
GATGCTGTTTCGTATATTCGGTGCTTCCCTTTTTATTTTTCGGAGTCACCTAGTGCAG	10200 fluorescence intensity (a.u.)
TAACGTTTTCTTTTAAGTTGTGCGCTGTACTATTATTTTTCGGAGTCACCTAGTGCAG	9710 fluorescence intensity (a.u.)

Sequence	binding signal
CACATACACACCACACATACTTTTGCAGAGCAGCAACATGCGGAGTCACCTAGTGCAG	8370 fluorescence intensity (a.u.)
TCACTTCGCACATTAACTCTCTCTCTCTCTCCATTTTCTTCGGAGTCACCTAGTGCAG	11300 fluorescence intensity (a.u.)
TTCTCTCTCCCTGCCCTCAACCACCACCACCTCCTCGATCCGGAGTCACCTAGTGCAG	8180 fluorescence intensity (a.u.)
ATATATGAGGGAGCCAATGTAGACTTATTCTGGCTCTCACCGGAGTCACCTAGTGCAG	9120 fluorescence intensity (a.u.)
CCTACCACCACACGTACACCTCTCGTTCTTCTCGACTTCTCGGAGTCACCTAGTGCAG	15900 fluorescence intensity (a.u.)
GGCGGAGGAGTTCAGGTTAGGGTTTTAAATCTCCAGCTATCGGAGTCACCTAGTGCAG	8720 fluorescence intensity (a.u.)
GGGAGAATGGTGGTGGTTGTTGGGCGGCGGCGGTAGATAGCGGAGTCACCTAGTGCAG	9450 fluorescence intensity (a.u.)
CACCGGCACCGCATCGCTTCACTCCGCTCTCACAGTCTCACGGAGTCACCTAGTGCAG	13400 fluorescence intensity (a.u.)
CAGTACACCACACTGTCCACACACCACACCAACTAGTCCACGGAGTCACCTAGTGCAG	9370 fluorescence intensity (a.u.)
CCCCACCTTTGTACATCTCCTTCCCTTTTTTTTCTACCCTCGGAGTCACCTAGTGCAG	8520 fluorescence intensity (a.u.)
GTTTCATCTTCTTGTGGGCTTTTCTGGTGAACTCAATTCACGGAGTCACCTAGTGCAG	8250 fluorescence intensity (a.u.)
AGTTTTGCCTGAGCCTATTTTTCATTGATTGCATGTAATACGGAGTCACCTAGTGCAG	8540 fluorescence intensity (a.u.)
TTTTTTGCTCTATCTGATCCAGTTTGTGCTTGATTTTCTTCGGAGTCACCTAGTGCAG	8840 fluorescence intensity (a.u.)
GCTTTGTTCTGATTCCTTCACAGTTATTTGATATTTTCCTCGGAGTCACCTAGTGCAG	8710 fluorescence intensity (a.u.)
AACCAGCTAGCTGATCGAGTTCGTTGTTTACCATCCTATTCGGAGTCACCTAGTGCAG	8510 fluorescence intensity (a.u.)
AGCTGAGAGCCAACCACCACGCTGCTGCTCCGCCGCTCTTCGGAGTCACCTAGTGCAG	8480 fluorescence intensity (a.u.)
CCTTCTTTCCCTTTTCCCATCTGGCAAGATTTTTCTTATTCGGAGTCACCTAGTGCAG	9610 fluorescence intensity (a.u.)
AACAGACGCAGACAGACACACACGGTCATCACACACGCGCCGGAGTCACCTAGTGCAG	9030 fluorescence intensity (a.u.)
ATGGACATAGATAGATCACGGTTACCTTTGCAAATAGCTTCGGAGTCACCTAGTGCAG	8410 fluorescence intensity (a.u.)
TCTGACCGCTGGAAATTCAATTTGTTTTGTTCGTTACTCTCGGAGTCACCTAGTGCAG	11400 fluorescence intensity (a.u.)
ACCGGGTTGGAATATATTACACCTTCTTCATTTTGTTCATCGGAGTCACCTAGTGCAG	8830 fluorescence intensity (a.u.)
GGTGGTGACGGGGTACTCATCCATGTCGACGTAGTTCTTGCGGAGTCACCTAGTGCAG	9650 fluorescence intensity (a.u.)
ATATCTTCTTGTCATTTTTTCCACACTTCCTTTTGATTTTCGGAGTCACCTAGTGCAG	12400 fluorescence intensity (a.u.)
GACCCAACGACCCCGCCATTGCTCACCTCCACCTCCACCTCGGAGTCACCTAGTGCAG	8800 fluorescence intensity (a.u.)
GGAAGAGCTCTGTGCATTCTCTTATCAGTTTACTGTTGCACGGAGTCACCTAGTGCAG	8350 fluorescence intensity (a.u.)
CGCGTCTCGATCTCGGCGGTGCCTTCCATCCGTCCGCCCGCGGAGTCACCTAGTGCAG	8220 fluorescence intensity (a.u.)
GGAAGTAGCTATCATTTATTTCATTGTGACTTGATTCGTCCGGAGTCACCTAGTGCAG	9560 fluorescence intensity (a.u.)

A stretch of the results above, for reference:
Sequence	binding signal
AGTTTTGCCTGAGCCTATTTTTCATTGATTGCATGTAATACGGAGTCACCTAGTGCAG	8540 fluorescence intensity (a.u.)
TTTTTTGCTCTATCTGATCCAGTTTGTGCTTGATTTTCTTCGGAGTCACCTAGTGCAG	8840 fluorescence intensity (a.u.)
